Experimental data as given in the supplement of paper PMC6411743.
± gives the standard deviation of the averaged measurements. The list shows a part of the results, in another mix than the full data.

Chains of the proteins cited; added tags and fusions are not shown. Lines headed by an entry give the natural chain unless they say otherwise; changes in a name come on top.
UniProt Q13445: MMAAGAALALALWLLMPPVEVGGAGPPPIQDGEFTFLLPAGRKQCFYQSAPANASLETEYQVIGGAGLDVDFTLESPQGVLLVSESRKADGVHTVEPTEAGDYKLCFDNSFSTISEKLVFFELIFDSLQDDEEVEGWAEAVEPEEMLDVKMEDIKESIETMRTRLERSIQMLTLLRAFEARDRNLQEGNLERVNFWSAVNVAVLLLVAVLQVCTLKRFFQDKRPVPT
UniProt Q08945, whole entry: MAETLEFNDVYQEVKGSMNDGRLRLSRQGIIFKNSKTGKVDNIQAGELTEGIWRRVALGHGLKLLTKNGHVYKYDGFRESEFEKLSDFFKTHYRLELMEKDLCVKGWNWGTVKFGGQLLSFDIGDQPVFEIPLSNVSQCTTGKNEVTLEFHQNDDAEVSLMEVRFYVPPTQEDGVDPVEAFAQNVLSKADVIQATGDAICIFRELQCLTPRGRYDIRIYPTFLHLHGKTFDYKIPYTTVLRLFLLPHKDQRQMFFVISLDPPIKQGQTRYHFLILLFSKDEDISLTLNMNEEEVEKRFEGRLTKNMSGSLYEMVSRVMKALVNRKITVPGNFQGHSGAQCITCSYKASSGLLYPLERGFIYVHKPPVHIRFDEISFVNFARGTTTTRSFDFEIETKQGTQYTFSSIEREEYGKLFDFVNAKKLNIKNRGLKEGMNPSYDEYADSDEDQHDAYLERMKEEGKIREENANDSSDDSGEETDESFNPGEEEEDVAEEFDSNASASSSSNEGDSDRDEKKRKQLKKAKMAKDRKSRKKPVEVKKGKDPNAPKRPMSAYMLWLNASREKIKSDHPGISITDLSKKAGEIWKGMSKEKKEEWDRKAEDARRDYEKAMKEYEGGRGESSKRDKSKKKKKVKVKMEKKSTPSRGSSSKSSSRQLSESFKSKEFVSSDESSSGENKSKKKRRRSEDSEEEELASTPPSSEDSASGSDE
UniProt Q05BQ5, whole entry: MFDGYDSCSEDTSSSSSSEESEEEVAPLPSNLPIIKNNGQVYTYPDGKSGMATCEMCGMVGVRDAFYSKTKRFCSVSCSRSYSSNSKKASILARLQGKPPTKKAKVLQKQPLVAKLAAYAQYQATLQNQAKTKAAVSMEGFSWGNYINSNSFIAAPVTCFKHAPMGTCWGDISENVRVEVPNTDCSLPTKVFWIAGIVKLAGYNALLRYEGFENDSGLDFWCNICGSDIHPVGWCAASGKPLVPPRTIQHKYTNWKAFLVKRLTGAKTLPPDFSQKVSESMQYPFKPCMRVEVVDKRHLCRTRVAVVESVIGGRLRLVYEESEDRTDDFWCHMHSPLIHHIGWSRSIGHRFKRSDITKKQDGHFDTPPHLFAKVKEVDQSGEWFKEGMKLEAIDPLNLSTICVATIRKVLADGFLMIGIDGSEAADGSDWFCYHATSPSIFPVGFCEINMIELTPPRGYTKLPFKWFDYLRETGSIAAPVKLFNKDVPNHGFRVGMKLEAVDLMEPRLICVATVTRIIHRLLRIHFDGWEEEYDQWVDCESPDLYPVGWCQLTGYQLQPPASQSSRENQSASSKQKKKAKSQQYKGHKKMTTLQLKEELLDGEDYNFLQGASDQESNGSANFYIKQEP
UniProt Q07954: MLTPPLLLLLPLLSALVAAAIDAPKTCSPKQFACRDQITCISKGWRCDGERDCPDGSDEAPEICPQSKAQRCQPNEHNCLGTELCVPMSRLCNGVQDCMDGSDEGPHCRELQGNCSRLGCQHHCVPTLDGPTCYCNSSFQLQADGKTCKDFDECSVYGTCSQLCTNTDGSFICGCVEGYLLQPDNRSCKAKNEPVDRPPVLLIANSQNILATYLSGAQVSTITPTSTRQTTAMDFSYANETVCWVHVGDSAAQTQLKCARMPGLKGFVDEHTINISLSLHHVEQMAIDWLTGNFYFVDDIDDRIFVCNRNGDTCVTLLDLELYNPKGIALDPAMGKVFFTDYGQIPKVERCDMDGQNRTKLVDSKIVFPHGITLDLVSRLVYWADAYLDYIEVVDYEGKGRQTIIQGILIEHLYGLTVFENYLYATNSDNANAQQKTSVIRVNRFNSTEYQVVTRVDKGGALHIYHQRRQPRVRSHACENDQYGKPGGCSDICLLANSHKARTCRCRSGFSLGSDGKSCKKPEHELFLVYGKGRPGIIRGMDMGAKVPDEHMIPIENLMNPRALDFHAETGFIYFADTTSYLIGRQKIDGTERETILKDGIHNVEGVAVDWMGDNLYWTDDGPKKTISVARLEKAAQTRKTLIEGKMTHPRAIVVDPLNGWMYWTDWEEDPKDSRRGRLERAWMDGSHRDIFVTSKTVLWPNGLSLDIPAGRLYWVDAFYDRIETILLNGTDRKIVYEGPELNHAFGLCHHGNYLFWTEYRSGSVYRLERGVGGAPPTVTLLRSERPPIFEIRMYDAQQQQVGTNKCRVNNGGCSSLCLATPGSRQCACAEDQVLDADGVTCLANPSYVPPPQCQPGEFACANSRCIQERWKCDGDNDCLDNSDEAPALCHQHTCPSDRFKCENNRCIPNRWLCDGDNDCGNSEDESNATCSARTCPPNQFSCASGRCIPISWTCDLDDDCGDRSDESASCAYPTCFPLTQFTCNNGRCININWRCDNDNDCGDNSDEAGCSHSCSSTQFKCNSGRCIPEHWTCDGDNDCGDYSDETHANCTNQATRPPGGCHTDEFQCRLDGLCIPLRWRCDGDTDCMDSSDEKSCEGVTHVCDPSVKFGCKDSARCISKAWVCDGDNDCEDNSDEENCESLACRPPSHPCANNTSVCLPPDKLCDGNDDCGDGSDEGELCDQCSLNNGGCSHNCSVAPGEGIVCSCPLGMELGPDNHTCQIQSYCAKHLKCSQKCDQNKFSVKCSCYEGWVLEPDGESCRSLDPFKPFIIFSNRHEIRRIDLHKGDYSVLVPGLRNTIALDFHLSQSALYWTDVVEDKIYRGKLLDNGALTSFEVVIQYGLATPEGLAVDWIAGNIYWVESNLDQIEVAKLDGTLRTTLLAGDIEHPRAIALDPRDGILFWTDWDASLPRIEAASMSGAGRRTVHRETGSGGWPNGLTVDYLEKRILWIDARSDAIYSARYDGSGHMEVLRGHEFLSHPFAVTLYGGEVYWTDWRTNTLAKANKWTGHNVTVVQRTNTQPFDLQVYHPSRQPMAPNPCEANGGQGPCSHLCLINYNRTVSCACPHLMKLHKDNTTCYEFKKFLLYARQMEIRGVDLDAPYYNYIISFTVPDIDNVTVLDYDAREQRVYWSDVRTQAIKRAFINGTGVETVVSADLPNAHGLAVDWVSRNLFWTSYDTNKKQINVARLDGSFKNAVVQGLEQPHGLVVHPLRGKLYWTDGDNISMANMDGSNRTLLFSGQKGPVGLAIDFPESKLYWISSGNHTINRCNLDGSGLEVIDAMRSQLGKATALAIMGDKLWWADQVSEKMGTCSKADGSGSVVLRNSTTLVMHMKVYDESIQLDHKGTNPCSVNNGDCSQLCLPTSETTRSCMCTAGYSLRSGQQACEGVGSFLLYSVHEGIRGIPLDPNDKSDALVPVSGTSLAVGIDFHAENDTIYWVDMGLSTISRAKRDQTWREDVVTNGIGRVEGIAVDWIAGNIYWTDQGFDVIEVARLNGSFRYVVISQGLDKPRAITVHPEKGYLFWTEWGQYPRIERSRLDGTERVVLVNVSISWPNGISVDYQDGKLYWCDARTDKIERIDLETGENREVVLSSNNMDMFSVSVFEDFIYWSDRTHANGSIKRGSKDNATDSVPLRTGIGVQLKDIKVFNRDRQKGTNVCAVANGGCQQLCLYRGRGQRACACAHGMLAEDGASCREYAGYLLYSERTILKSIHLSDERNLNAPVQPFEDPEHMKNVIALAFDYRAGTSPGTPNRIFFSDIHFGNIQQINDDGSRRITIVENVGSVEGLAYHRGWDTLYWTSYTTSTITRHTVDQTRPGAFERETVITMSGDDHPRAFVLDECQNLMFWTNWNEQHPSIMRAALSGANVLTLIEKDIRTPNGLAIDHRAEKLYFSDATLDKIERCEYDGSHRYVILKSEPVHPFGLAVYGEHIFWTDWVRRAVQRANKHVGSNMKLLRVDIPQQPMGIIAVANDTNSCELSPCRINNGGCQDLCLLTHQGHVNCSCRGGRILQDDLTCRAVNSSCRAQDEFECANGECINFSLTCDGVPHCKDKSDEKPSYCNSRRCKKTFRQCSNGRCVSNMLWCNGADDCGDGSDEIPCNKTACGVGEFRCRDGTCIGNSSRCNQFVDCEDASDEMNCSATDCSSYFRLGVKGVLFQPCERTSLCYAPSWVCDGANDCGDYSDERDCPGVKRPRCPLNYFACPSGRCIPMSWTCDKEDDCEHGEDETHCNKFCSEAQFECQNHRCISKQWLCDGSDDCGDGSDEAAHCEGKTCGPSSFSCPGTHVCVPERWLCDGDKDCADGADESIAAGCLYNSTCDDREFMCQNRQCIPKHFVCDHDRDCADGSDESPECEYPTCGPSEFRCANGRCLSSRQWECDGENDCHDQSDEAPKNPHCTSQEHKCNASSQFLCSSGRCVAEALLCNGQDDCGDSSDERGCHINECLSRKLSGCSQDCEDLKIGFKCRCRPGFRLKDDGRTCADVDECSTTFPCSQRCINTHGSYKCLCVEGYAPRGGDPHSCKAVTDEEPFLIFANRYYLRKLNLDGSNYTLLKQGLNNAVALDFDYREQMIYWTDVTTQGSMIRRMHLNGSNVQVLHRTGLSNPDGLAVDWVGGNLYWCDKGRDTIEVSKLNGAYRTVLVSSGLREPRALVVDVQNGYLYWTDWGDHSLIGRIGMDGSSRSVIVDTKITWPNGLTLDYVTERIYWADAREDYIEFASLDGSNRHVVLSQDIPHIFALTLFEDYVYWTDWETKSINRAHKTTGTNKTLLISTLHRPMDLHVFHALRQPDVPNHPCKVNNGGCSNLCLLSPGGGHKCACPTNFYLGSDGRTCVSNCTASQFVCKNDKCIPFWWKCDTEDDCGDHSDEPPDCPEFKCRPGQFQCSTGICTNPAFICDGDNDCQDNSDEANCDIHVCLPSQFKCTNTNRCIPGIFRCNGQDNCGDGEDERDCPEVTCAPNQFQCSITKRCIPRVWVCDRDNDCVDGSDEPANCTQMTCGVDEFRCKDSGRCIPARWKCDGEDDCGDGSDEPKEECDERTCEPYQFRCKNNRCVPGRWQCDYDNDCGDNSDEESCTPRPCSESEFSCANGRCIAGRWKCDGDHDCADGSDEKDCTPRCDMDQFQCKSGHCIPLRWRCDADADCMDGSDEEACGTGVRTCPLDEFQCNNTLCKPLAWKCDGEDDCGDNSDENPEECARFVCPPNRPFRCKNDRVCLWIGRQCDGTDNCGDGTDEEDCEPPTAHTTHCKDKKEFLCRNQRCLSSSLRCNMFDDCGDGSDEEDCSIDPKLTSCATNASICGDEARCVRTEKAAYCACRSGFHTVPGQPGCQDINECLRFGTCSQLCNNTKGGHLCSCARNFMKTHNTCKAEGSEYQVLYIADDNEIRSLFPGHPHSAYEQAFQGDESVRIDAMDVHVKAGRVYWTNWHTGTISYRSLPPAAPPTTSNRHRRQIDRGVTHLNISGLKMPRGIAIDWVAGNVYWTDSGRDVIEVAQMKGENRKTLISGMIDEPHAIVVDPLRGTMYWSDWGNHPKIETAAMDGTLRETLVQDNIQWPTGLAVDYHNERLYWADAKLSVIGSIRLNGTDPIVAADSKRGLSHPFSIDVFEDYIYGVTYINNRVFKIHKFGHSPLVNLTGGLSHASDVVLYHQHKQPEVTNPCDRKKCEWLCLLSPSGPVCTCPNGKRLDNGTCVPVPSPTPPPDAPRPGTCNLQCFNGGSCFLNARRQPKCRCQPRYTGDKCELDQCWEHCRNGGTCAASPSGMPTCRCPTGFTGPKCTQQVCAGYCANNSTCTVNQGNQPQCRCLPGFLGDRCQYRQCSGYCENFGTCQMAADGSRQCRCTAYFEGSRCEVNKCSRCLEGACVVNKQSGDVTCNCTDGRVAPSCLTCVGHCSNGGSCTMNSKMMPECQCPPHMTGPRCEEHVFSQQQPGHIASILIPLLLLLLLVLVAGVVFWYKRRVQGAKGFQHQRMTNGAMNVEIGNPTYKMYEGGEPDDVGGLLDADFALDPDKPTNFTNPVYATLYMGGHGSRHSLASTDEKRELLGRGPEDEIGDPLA
UniProt Q05639, whole entry: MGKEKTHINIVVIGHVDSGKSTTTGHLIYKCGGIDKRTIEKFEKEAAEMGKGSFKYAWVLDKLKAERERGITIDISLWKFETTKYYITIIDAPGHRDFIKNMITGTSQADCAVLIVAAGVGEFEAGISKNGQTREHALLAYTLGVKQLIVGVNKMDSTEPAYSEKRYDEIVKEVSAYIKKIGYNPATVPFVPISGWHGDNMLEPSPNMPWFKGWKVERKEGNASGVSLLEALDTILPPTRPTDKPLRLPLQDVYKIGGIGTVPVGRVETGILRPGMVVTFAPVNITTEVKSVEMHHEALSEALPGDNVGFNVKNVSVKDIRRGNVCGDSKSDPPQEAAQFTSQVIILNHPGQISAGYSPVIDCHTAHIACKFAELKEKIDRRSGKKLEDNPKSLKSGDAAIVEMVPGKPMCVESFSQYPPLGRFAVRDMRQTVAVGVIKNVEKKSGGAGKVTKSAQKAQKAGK

Compound: Nc1ncnc2c1ncn2[C@@H]1O[C@H](COP(=O)(O)OP(=O)(O)OP(=O)(O)O)[C@@H](O)[C@H]1O [adenosine triphosphate]
Test: NP40-soluble protein abundance relative to vehicle (solubility fold change) (ratio); higher = more soluble protein in presence of ATP
Method in brief: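 Across three independent experiments, values are fold changes against the detergent-processed vehicle for each replicate, based on vsn-normalised intensities. The samples were Jurkat crude lysate treated with eight concentrations (0.1 to 10 mM) for 10 min at room temperature and then 3 min at 37 °C. Lysate was solubilised with 0.8% NP40 and benzonase, ultracentrifuged, and the supernatant analysed by TMT-labelled LC-MS/MS.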

Target	NP40-soluble protein abundance (concentration: 1mM)	NP40-soluble protein abundance (concentration: 2mM)	NP40-soluble protein abundance (concentration: 4mM)	NP40-soluble protein abundance (concentration: 6mM)	NP40-soluble protein abundance (concentration: 8mM)	NP40-soluble protein abundance (concentration: 10mM)
TMED1 (UniProt Q13445)	1.06 ± 0.12	1.02 ± 0.062	1.03 ± 0.073	0.986 ± 0.12	1 ± 0.056	0.98 ± 0.036
FKBP5 (UniProt Q13451)	0.975 ± 0.02	0.959 ± 0.022	0.96 ± 0.025	0.979 ± 0.044	0.954 ± 0.034	0.941 ± 0.043
UniProt Q14005 and related entries	0.984 ± 0.081	1 ± 0.038	0.979 ± 0.078	0.988 ± 0.063	0.956 ± 0.06	0.972 ± 0.035
UniProt Q06481 and related entries	1.05 ± 0.14	0.905 ± 0.089	1.06 ± 0.16	1.04 ± 0.023	1.04 ± 0.11	0.908 ± 0.12
SSRP1 (UniProt Q08945)	0.994 ± 0.051	1.02 ± 0.02	1.02 ± 0.035	1.12 ± 0.051	1.187 ± 0.0031	1.34 ± 0.066
UNC119 (UniProt Q13432)	0.938 ± 0.065	0.975 ± 0.072	0.94 ± 0.085	0.953 ± 0.057	0.932 ± 0.025	0.933 ± 0.082
EIF2B5 (UniProt Q13144)	1.04 ± 0.063	1.01 ± 0.015	1.08 ± 0.18	1.05 ± 0.13	1.11 ± 0.11	1.05 ± 0.037
DDX10 (UniProt Q13206)	0.961 ± 0.015	0.956 ± 0.046	0.929 ± 0.032	0.967 ± 0.041	0.964 ± 0.041	0.986 ± 0.067
BOP1 (UniProt Q14137)	1.04 ± 0.015	1.08 ± 0.05	1.08 ± 0.028	1.07 ± 0.047	1.03 ± 0.017	1.07 ± 0.03
RIPK1 (UniProt Q13546)	1.04 ± 0.054	1.04 ± 0.046	1.01 ± 0.053	0.962 ± 0.072	1.04 ± 0.034	1.02 ± 0.044
UniProt Q10589 and related entries	1.07 ± 0.021	1.08 ± 0.038	1.2 ± 0.15	1.17 ± 0.024	1.17 ± 0.16	1.09 ± 0.1
MBTD1 (UniProt Q05BQ5)	1.05 ± 0.031	1 ± 0.026	1.08 ± 0.058	1.03 ± 0.042	1.09 ± 0.085	1.08 ± 0.03
TRIM28 (UniProt Q13263)	0.977 ± 0.031	0.96 ± 0.041	0.93 ± 0.025	0.971 ± 0.016	0.919 ± 0.0098	0.9307 ± 0.0049
UniProt Q12933-2|Q12933 and related entries	0.997 ± 0.006	1.01 ± 0.032	1.028 ± 0.007	1.06 ± 0.066	1.065 ± 0.01	1.04 ± 0.012
UniProt Q04864-2	0.981 ± 0.03	1.007 ± 0.0057	0.987 ± 0.028	0.9753 ± 0.0086	0.967 ± 0.033	0.974 ± 0.013
UniProt Q02447-3	0.922 ± 0.074	0.908 ± 0.012	0.889 ± 0.01	0.918 ± 0.03	0.889 ± 0.033	0.889 ± 0.039
UniProt Q06265 and related entries	1.04 ± 0.054	1.05 ± 0.059	1.13 ± 0.04	1.1 ± 0.082	1.18 ± 0.032	1.2 ± 0.078
LRP1 (UniProt Q07954)	0.987 ± 0.13	0.947 ± 0.054	0.987 ± 0.12	0.958 ± 0.091	0.961 ± 0.088	0.918 ± 0.099
UniProt Q14141	0.9784 ± 0.0063	0.945 ± 0.029	0.92 ± 0.017	0.958 ± 0.045	0.932 ± 0.037	0.917 ± 0.058
TAF10 (UniProt Q12962)	0.988 ± 0.13	1.12 ± 0.076	1.1 ± 0.013	1.11 ± 0.16	0.996 ± 0.085	1.02 ± 0.024

14 entries from above in another layout.
Target,NP40-soluble protein abundance (concentration: 1mM),NP40-soluble protein abundance (concentration: 2mM),NP40-soluble protein abundance (concentration: 4mM),NP40-soluble protein abundance (concentration: 6mM),NP40-soluble protein abundance (concentration: 8mM),NP40-soluble protein abundance (concentration: 10mM)
TMED1 (UniProt Q13445),1.06 ± 0.12,1.02 ± 0.062,1.03 ± 0.073,0.986 ± 0.12,1 ± 0.056,0.98 ± 0.036
FKBP5 (UniProt Q13451),0.975 ± 0.02,0.959 ± 0.022,0.96 ± 0.025,0.979 ± 0.044,0.954 ± 0.034,0.941 ± 0.043
UniProt Q06481 and related entries,1.05 ± 0.14,0.905 ± 0.089,1.06 ± 0.16,1.04 ± 0.023,1.04 ± 0.11,0.908 ± 0.12
UNC119 (UniProt Q13432),0.938 ± 0.065,0.975 ± 0.072,0.94 ± 0.085,0.953 ± 0.057,0.932 ± 0.025,0.933 ± 0.082
EIF2B5 (UniProt Q13144),1.04 ± 0.063,1.01 ± 0.015,1.08 ± 0.18,1.05 ± 0.13,1.11 ± 0.11,1.05 ± 0.037
BOP1 (UniProt Q14137),1.04 ± 0.015,1.08 ± 0.05,1.08 ± 0.028,1.07 ± 0.047,1.03 ± 0.017,1.07 ± 0.03
RIPK1 (UniProt Q13546),1.04 ± 0.054,1.04 ± 0.046,1.01 ± 0.053,0.962 ± 0.072,1.04 ± 0.034,1.02 ± 0.044
UniProt Q10589 and related entries,1.07 ± 0.021,1.08 ± 0.038,1.2 ± 0.15,1.17 ± 0.024,1.17 ± 0.16,1.09 ± 0.1
MBTD1 (UniProt Q05BQ5),1.05 ± 0.031,1 ± 0.026,1.08 ± 0.058,1.03 ± 0.042,1.09 ± 0.085,1.08 ± 0.03
TRIM28 (UniProt Q13263),0.977 ± 0.031,0.96 ± 0.041,0.93 ± 0.025,0.971 ± 0.016,0.919 ± 0.0098,0.9307 ± 0.0049
UniProt Q12933-2|Q12933 and related entries,0.997 ± 0.006,1.01 ± 0.032,1.028 ± 0.007,1.06 ± 0.066,1.065 ± 0.01,1.04 ± 0.012
UniProt Q02447-3,0.922 ± 0.074,0.908 ± 0.012,0.889 ± 0.01,0.918 ± 0.03,0.889 ± 0.033,0.889 ± 0.039
LRP1 (UniProt Q07954),0.987 ± 0.13,0.947 ± 0.054,0.987 ± 0.12,0.958 ± 0.091,0.961 ± 0.088,0.918 ± 0.099
TAF10 (UniProt Q12962),0.988 ± 0.13,1.12 ± 0.076,1.1 ± 0.013,1.11 ± 0.16,0.996 ± 0.085,1.02 ± 0.024

(cont.)

Target	NP40-soluble protein abundance (concentration: 1mM)	NP40-soluble protein abundance (concentration: 2mM)	NP40-soluble protein abundance (concentration: 4mM)	NP40-soluble protein abundance (concentration: 6mM)	NP40-soluble protein abundance (concentration: 8mM)	NP40-soluble protein abundance (concentration: 10mM)
PMPCA (UniProt Q10713)	1.03 ± 0.088	0.996 ± 0.063	0.979 ± 0.077	0.961 ± 0.08	1.01 ± 0.072	0.98 ± 0.041
UniProt Q13574 and related entries	1.05 ± 0.044	1.05 ± 0.041	1.02 ± 0.03	0.995 ± 0.038	0.97 ± 0.027	0.978 ± 0.043
UniProt Q02086 and related entries	1 ± 0.027	1.04 ± 0.075	0.974 ± 0.028	0.994 ± 0.052	0.933 ± 0.068	0.968 ± 0.022
STX4 (UniProt Q12846)	0.975 ± 0.042	0.993 ± 0.035	0.981 ± 0.016	0.998 ± 0.032	0.969 ± 0.035	0.96 ± 0.036
PDAP1 (UniProt Q13442)	0.922 ± 0.2	0.859 ± 0.099	0.902 ± 0.13	1.02 ± 0.17	1.01 ± 0.084	0.994 ± 0.17
CKAP5 (UniProt Q14008)	0.965 ± 0.012	0.976 ± 0.02	0.957 ± 0.023	0.984 ± 0.011	0.957 ± 0.035	0.987 ± 0.032
DHODH (UniProt Q02127)	1.02 ± 0.019	0.9924 ± 0.0012	0.987 ± 0.027	0.95 ± 0.067	0.972 ± 0.015	0.974 ± 0.05
ROCK1 (UniProt Q13464)	0.969 ± 0.03	0.974 ± 0.03	0.952 ± 0.027	0.996 ± 0.031	0.943 ± 0.03	0.952 ± 0.045
UniProt Q13367 and related entries	1.04 ± 0.081	1.01 ± 0.058	1.04 ± 0.084	1.03 ± 0.089	0.94 ± 0.074	1 ± 0.1
OTUD4 (UniProt Q01804)	1.02 ± 0.068	1.06 ± 0.04	1.07 ± 0.079	1.07 ± 0.053	1.05 ± 0.054	1.047 ± 0.0048
SNX1 (UniProt Q13596)	0.977 ± 0.029	0.983 ± 0.013	0.982 ± 0.0089	0.984 ± 0.048	0.98 ± 0.013	0.973 ± 0.024
DSG2 (UniProt Q14126)	0.954 ± 0.041	0.984 ± 0.025	1.01 ± 0.052	1 ± 0.046	0.943 ± 0.02	0.96 ± 0.051
UniProt Q12769 and related entries	1.08 ± 0.11	1.07 ± 0.09	1.1 ± 0.046	1 ± 0.11	1.16 ± 0.041	1.12 ± 0.035
RNASEL (UniProt Q05823)	1.118 ± 0.0075	1.13 ± 0.013	1.139 ± 0.0069	1.11 ± 0.02	1.1 ± 0.063	1.1 ± 0.015
UniProt Q13564 and related entries	1.01 ± 0.043	1.02 ± 0.022	1 ± 0.025	1 ± 0.059	0.977 ± 0.018	0.984 ± 0.025
UniProt Q05655	1.02 ± 0.084	1 ± 0.075	1.01 ± 0.046	0.967 ± 0.1	1.01 ± 0.076	0.977 ± 0.047
EXOSC10 (UniProt Q01780)	1.08 ± 0.022	1.08 ± 0.017	1.155 ± 0.0069	1.21 ± 0.035	1.26 ± 0.024	1.31 ± 0.051
PFKP (UniProt Q01813)	1.05 ± 0.043	1 ± 0.012	0.99 ± 0.022	0.986 ± 0.015	1.01 ± 0.03	0.993 ± 0.058
HDAC1 (UniProt Q13547)	0.967 ± 0.028	0.951 ± 0.017	0.878 ± 0.028	0.94 ± 0.047	0.937 ± 0.058	0.958 ± 0.034
ACACA (UniProt Q13085)	1.05 ± 0.069	1.01 ± 0.064	1.01 ± 0.057	0.934 ± 0.049	1.02 ± 0.017	0.984 ± 0.045

Target	NP40-soluble protein abundance (concentration: 1mM)	NP40-soluble protein abundance (concentration: 2mM)	NP40-soluble protein abundance (concentration: 4mM)	NP40-soluble protein abundance (concentration: 6mM)	NP40-soluble protein abundance (concentration: 8mM)	NP40-soluble protein abundance (concentration: 10mM)
UniProt Q06136 and related entries	0.919 ± 0.1	0.994 ± 0.071	0.964 ± 0.092	0.957 ± 0.08	0.936 ± 0.086	0.96 ± 0.018
UniProt Q13029 and related entries	1.14 ± 0.098	1.18 ± 0.048	1.24 ± 0.11	1.32 ± 0.1	1.25 ± 0.077	1.35 ± 0.12
UniProt Q13595 and related entries	1.24 ± 0.082	1.29 ± 0.19	1.42 ± 0.18	1.43 ± 0.31	1.44 ± 0.25	1.56 ± 0.29
UniProt Q13332-2|Q13332-6	0.992 ± 0.11	1.04 ± 0.081	1.04 ± 0.062	1.05 ± 0.053	1 ± 0.019	1.02 ± 0.075
DNAJC3 (UniProt Q13217)	0.977 ± 0.031	1.001 ± 0.0099	0.955 ± 0.018	0.995 ± 0.025	0.963 ± 0.0096	0.964 ± 0.015
UniProt Q00839 and related entries	1.07 ± 0.13	0.966 ± 0.2	0.999 ± 0.11	1.11 ± 0.35	1.18 ± 0.073	0.989 ± 0.2
UniProt Q05932 and related entries	1.09 ± 0.062	1.04 ± 0.046	1.02 ± 0.11	1.01 ± 0.092	1.08 ± 0.082	1.02 ± 0.081
EEF1A2 (UniProt Q05639)	1.05 ± 0.064	0.96 ± 0.038	0.9724 ± 0.0075	0.922 ± 0.19	0.866 ± 0.085	0.934 ± 0.019
UniProt Q12906 and related entries	1.09 ± 0.042	1.13 ± 0.069	1.17 ± 0.083	1.26 ± 0.07	1.29 ± 0.093	1.39 ± 0.11
UniProt Q04726-3|Q04726-7|H0YKT5 and related entries	0.977 ± 0.027	0.969 ± 0.028	0.943 ± 0.022	0.948 ± 0.056	0.937 ± 0.047	0.938 ± 0.045
KEAP1 (UniProt Q14145)	0.971 ± 0.13	1.03 ± 0.18	1.19 ± 0.31	1.26 ± 0.54	1.04 ± 0.21	1.26 ± 0.48
ITPK1 (UniProt Q13572)	0.914 ± 0.053	0.887 ± 0.077	0.89 ± 0.064	0.952 ± 0.14	0.881 ± 0.059	0.909 ± 0.022
UniProt Q13530 and related entries	1.01 ± 0.093	1.05 ± 0.041	0.98 ± 0.034	0.973 ± 0.059	0.991 ± 0.072	0.937 ± 0.041
UniProt Q02543 and related entries	0.954 ± 0.073	0.861 ± 0.14	0.823 ± 0.14	0.802 ± 0.18	0.653 ± 0.17	0.869 ± 0.18
UniProt Q13190 and related entries	1 ± 0.015	1.01 ± 0.017	0.973 ± 0.016	0.991 ± 0.046	0.981 ± 0.016	1 ± 0.016
SNW1 (UniProt Q13573)	0.932 ± 0.048	0.954 ± 0.032	0.953 ± 0.02	1.03 ± 0.044	0.986 ± 0.021	1.021 ± 0.0082
DAG1 (UniProt Q14118)	0.969 ± 0.11	0.915 ± 0.089	0.891 ± 0.1	0.934 ± 0.076	0.875 ± 0.082	0.841 ± 0.11
UniProt Q13627-2	1.17 ± 0.054	1.17 ± 0.024	1.19 ± 0.017	1.19 ± 0.015	1.214 ± 0.0054	1.22 ± 0.05
UniProt Q03188	1.02 ± 0.053	1.04 ± 0.032	1.06 ± 0.043	1.08 ± 0.011	0.99 ± 0.022	1.01 ± 0.036
UniProt Q0VG06 and related entries	0.936 ± 0.064	1 ± 0.039	1.05 ± 0.073	0.984 ± 0.062	1.07 ± 0.073	1.01 ± 0.012
